Percent effect of library compounds

Amino acid sequences for entries named in this document (tags omitted). Residues count along the entry.
UniProt P9WFT3, whole entry: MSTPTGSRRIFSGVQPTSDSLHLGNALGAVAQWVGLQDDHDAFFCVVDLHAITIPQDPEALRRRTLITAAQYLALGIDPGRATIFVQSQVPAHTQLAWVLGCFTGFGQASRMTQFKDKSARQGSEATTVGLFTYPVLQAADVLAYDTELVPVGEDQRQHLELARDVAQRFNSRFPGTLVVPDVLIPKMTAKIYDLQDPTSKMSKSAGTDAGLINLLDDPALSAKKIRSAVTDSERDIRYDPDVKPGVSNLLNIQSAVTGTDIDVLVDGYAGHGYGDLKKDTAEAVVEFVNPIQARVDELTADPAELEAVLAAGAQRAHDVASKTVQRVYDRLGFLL
UniProt I6X8D2, whole entry: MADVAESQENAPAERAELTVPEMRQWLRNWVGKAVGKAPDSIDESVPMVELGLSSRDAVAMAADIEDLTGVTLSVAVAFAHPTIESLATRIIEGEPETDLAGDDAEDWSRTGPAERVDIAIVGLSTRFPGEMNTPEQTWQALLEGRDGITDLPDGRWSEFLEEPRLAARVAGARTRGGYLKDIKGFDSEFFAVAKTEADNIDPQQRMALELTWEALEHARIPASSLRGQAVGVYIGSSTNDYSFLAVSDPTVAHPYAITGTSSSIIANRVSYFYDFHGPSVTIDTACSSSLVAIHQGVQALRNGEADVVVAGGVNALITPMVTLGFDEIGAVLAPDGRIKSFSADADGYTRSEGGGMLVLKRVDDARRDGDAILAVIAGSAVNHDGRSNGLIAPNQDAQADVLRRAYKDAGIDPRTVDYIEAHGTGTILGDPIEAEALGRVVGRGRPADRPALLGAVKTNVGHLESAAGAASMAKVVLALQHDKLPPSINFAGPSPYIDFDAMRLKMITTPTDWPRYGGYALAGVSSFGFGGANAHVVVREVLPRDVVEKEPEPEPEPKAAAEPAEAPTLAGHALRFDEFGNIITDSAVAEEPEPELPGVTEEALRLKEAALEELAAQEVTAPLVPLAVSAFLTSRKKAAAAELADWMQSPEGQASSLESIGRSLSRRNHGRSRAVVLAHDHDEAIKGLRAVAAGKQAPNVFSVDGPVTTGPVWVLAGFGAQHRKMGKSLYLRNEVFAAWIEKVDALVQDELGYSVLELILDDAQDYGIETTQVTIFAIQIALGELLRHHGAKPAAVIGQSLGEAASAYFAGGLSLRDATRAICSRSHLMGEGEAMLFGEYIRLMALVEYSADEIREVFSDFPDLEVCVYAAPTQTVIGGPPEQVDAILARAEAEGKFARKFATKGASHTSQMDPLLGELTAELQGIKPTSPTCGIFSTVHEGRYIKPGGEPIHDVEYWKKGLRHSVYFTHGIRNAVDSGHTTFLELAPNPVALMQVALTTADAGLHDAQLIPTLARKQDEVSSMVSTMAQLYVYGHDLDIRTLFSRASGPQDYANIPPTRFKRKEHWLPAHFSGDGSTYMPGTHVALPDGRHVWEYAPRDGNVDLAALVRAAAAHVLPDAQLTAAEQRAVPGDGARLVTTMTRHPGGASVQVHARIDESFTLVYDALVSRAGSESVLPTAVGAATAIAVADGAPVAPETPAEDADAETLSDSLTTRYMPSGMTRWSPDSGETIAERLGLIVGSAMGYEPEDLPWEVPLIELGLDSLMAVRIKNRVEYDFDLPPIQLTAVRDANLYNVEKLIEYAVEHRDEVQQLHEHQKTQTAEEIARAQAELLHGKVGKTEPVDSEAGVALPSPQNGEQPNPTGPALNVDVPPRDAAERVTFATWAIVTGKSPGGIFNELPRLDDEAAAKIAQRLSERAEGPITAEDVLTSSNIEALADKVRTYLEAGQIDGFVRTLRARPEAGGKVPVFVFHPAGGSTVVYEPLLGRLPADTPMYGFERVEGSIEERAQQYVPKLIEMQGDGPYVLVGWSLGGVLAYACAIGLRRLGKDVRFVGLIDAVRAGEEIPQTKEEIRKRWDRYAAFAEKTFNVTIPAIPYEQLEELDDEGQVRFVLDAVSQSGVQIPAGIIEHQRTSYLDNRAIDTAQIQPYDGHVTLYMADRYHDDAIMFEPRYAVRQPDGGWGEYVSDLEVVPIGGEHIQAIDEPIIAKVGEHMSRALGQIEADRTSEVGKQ
UniProt Q4DA54, 1-478: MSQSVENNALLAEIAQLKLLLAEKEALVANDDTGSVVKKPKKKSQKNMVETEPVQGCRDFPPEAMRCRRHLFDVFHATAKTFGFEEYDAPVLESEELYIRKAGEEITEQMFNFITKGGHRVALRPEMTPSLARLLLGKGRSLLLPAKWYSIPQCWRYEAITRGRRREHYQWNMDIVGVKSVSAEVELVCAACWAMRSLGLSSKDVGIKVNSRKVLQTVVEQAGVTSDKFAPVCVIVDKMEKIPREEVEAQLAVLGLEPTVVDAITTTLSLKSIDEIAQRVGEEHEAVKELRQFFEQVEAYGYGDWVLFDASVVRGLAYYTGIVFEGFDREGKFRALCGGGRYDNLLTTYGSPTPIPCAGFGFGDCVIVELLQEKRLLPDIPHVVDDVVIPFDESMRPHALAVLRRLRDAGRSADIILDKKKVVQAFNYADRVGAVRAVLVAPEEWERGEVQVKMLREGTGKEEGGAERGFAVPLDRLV

Measurements from “University of Dundee, Small-Polar-MMV Screening Library” (2021), ChEMBL document CHEMBL3988442.

Results are given as percent effect. The controls that fix the scale are not given in the record; negative values are as filed. Compounds were drawn at random from those tested, without regard to their results. A dash means the value is not listed here; it may have been measured.

A: 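Enzyme assay of tryptophanyl-tRNA synthetase; the read-out is not stated. Target: Tryptophan-tRNA ligase, Mycobacterium tuberculosis (UniProt P9WFT3). Concentration: 10 µM. Direction is not recorded; retested compounds ran higher, which suggests that high means inhibition. Of about 65,000 compounds tested this way, about 64 (0.098%) reached 50% or more in at least one test.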
B: 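Cell assay of Leishmania donovani living inside macrophages; the read-out is not stated. Tested at 30 µM. The record gives no direction; compounds that gave an IC50 in retests scored well above the rest, so higher reads as stronger inhibition. Size under these conditions: about 69,000 compounds, about 1,000 of them at 50% or above in at least one test.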
C: 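Polyketide synthase Pks13, Mycobacterium tuberculosis (UniProt I6X8D2). Enzyme assay of the thioesterase domain of polyketide synthase 13; the read-out is not stated. Compounds at 30 µM. The record gives no direction; the compounds picked for IC50 retests had high values, so higher reads as stronger inhibition. Size under these conditions: about 67,000 compounds, about 300 of them at 50% or above in at least one test.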
D: 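Histidine-tRNA ligase, Trypanosoma cruzi CL Brener (UniProt Q4DA54). Enzyme assay of histidyl-tRNA synthetase; the read-out is not stated. Concentration: 30 µM. The record gives no direction; compounds that gave an IC50 in retests scored well above the rest, so higher reads as stronger inhibition. About 69,000 compounds were tested under these conditions; 0.045% (about 31) showed 50% or more at least once.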

SMILES	A	B	C	D
CCOc1ccccc1CNC(=O)N1CCC(n2cncn2)CC1	-1.94%	-4.526%	-7.327%	4.298%
CCc1oc(C(=O)NCCc2nc(C(=O)O)cs2)cc1CN1CCCC1	-2.031%	-8.905%	-21.1%	-2.717%
Cc1cc(C2CCCN(C(=O)c3cnccn3)C2)ccn1 (centres unmarked)	-2.926%	6.363%	-35.22%	2.703%
Cc1cnccc1N1CCN(C[C@]2(O)CCCN3CCCC[C@@H]32)CC1	4.03%	-	-39.67%	0%
COCCC(=O)N1CCC2(CN(Cc3cccc(F)c3)C2)C1	-4.17%	40.94%	9.308%	4.082%
COc1ccc(F)c(CN2CCCC3(CCN(C4CCOCC4)C3)C2)c1 (centres unmarked)	1.365%	-6.781%	0.02726%	10.89%
Cc1nn(C)c(N(C)C)c1CNC(C)c1cccnc1 (centres unmarked)	-2.375%	24%	-17.24%	6.977%
O=C(O)C(F)(F)F.[H][C@@]12OCCN(C(=O)c3ccc(C)o3)[C@@]1([H])CC[C@H]2OCc1ccccn1	-	-55.02%	-	-
CN(Cc1ccco1)C(=O)NC1CCCN(c2ncccn2)C1 (centres unmarked)	8.475%	7.223%	-6.841%	4.142%
[H][C@@]12CN(C(=O)[C@H]3CCCO3)C[C@]1([H])C(=O)N(Cc1ccc(OC)cc1)C2	-	7.901%	-	-
O=c1[nH]cc(Nc2ccc(Cl)cc2)c(=O)[nH]1	-1.214%	-27.06%	15.82%	-4.663%
O=C1CCC(=O)N1CCN1CCOC(c2ccsc2)C1 (centres unmarked)	-4.766%	-8.031%	1.111%	7.843%
Cc1ccc(NS(=O)(=O)c2cnn(Cc3ccccc3)c2)c(C(=O)O)c1	1.708%	-7.41%	5.005%	5%
O=C(NCC1CC1)[C@H]1C[C@@H]2[C@@H](C1)OCCN2Cc1cccnc1	8.919%	-	8.176%	4.865%
CN(Cc1ccc(Cl)s1)C(=O)NCCN1CCCCCC1=O	-4.714%	17.94%	-16.22%	5.102%
O=C(O)C(F)(F)F.[H][C@@]12C[C@H](C(=O)N3CCCC3)CN(C(=O)c3ccncc3)[C@]1([H])CCO2	-	14.83%	-	-
Cc1cccc(N2CCc3ncc(CNS(C)(=O)=O)n3CC2)n1	-2.995%	-	-6.595%	1.869%
O=C(O)C(F)(F)F.O=C(O)C(F)(F)F.c1cncc(C2COC3(CCN(Cc4nccs4)CC3)C2)c1 (centres unmarked)	-	-12.05%	-	-
CCN(CC)C(=O)c1ccc(-n2ncc(C#N)c2N)cc1	20.84%	-10.95%	-20.2%	-0.2849%
COCC1CN(S(=O)(=O)N(C)C)Cc2ncn(CC3CC3)c21.O=C(O)C(F)(F)F (centres unmarked)	-	11.82%	-	-
NC(=O)C1CCCN1Cc1cccc(NC(=O)c2cccs2)c1 (centres unmarked)	-0.07241%	6.002%	-1.963%	6.667%
Cc1ccc(CC(=O)NCC(O)c2cc(Cl)cc(Cl)c2)cn1 (centres unmarked)	2.321%	26.65%	-34.7%	7.006%
Cc1cccc(C(=O)N2CC[C@H]3C[C@@H](C)O[C@@H]3C2)n1	-1.798%	-	8.304%	-1.22%
NC(=O)N1CCCN(CCCSCc2ccccc2)CC1	-4.528%	32.31%	-37.69%	6.952%
O=C(C1CCC1)N1CCC2(CCCN2CC2CC2)CC1	-4.975%	-	-33.31%	10.1%
Cc1cccc(C2(C(=O)NCCCn3cccn3)CC2)c1	2.21%	17.4%	-14.95%	0%
O=C1CC2(CCSC2)C(=O)N1Cc1ncc(-c2ccccc2)o1 (centres unmarked)	-1.421%	-14.81%	-40.7%	1.571%
CNS(=O)(=O)c1cccc(CNC(=O)c2c(C)oc(C)c2C)c1	0.09747%	-21.77%	-13.96%	-1.88%
CCC(CC)NC(=O)CN1CCSCC1	5.067%	-121%	-11.15%	1.093%
O=C(NC1CC1)C1CN(Cc2ccc3c(c2)OCCO3)CCN1 (centres unmarked)	1.447%	-0.9804%	-0.5112%	-0.9662%
CCc1ccc(CN2C[C@@H](C(=O)O)[C@H](c3ccccc3OC)C2)o1	-1.2%	17.15%	-20.44%	3.175%
Cc1ccc(CNC(=O)NC2CCCN(c3ncccn3)C2)n1C (centres unmarked)	-2.803%	12.94%	10.56%	8.333%
COCCNC(=O)C[C@@H]1COC[C@H]2CN(C(=O)C3CCOCC3)C[C@@H]12	-	-	-5.584%	2.21%
CN(C)c1ccc(C(=O)NCC2(O)CCOCC2)cc1	7.353%	0.4724%	-15.72%	0.8333%
CCn1nc(CC(C)C)cc1C(=O)N1CCOCC(O)C1 (centres unmarked)	-2.018%	20.16%	-22.98%	3.261%
CCc1nnc(C(C)N2CCN(CCC(C)(C)C)CC2)o1 (centres unmarked)	1.665%	10.69%	-6.736%	-1.005%
CCc1cnc(N2CC3(CCN(C(=O)c4ccoc4)C3)C2)nc1	-2.071%	2.246%	-0.1857%	2.51%
CCCNC(=O)C(C)n1cc(Br)cn1 (centres unmarked)	2.237%	26.05%	-8.955%	6.695%
COCC(=O)NCc1cc(=O)n2c(n1)CN(Cc1cccs1)CCC2	-	36.44%	-6.245%	5.291%
CC[C@@H]1N(Cc2ccc(F)cc2)CCC[C@]12CCC(=O)N2CCOC.O=C(O)C(F)(F)F	-	-3.787%	-	-
Cc1ccoc1C(=O)NCc1ccnc(OCC(F)(F)F)c1	-0.565%	27.01%	-2.736%	7.101%
CCNC(=O)[C@@H]1C[C@H](N)CN1C(=O)Cc1cc(C)ccc1C	0.08085%	22.22%	-23.97%	7.821%
O=C1N(c2ccsc2)CCC12CCCN(Cc1cccnc1)C2 (centres unmarked)	-9.661%	-	-30.44%	5.464%
CN1CCN(C2CCOCC2)CC12CCC(=O)N(CC1CC1)CC2 (centres unmarked)	2.738%	3.544%	2.688%	7.2%
CCCn1cc(Cl)c(C(=O)N2C[C@H]3C[C@H](OC)C[C@H]3C2)n1	-1.823%	-	12.96%	4.215%
CN(CC1CC1)C(=O)CN1CCCC1c1cnn(C)c1 (centres unmarked)	-3.837%	9.943%	-19.79%	0%
O=C(CCNS(=O)(=O)c1cccnc1)N1CCOC(c2ccccc2)C1 (centres unmarked)	-2.437%	9.46%	-26.92%	1.01%
Cc1ccc(CN(CCCN2CCOCC2)Cc2cnc(C)n2C)o1	14.27%	-	-	9.886%
CCOc1ccccc1C(CC(=O)Nc1ccncc1)NC(C)=O (centres unmarked)	-5.085%	18.53%	-13.4%	3.55%
CCc1[nH]c(C2(N)CCCC2)nc(=O)c1C	-0.9855%	21.41%	-24.5%	4.867%
Cc1ccc2[nH]c(CN(C)c3cc(CCN)nc(C)n3)nc2c1	-2.528%	-13.35%	-29.5%	16.76%
COc1ccc(F)cc1C(=O)N1CCn2c(nnc2C(F)(F)F)C1	-2.259%	23.68%	-23.46%	1.478%

Some entries from above, unchanged:

SMILES	A	B	C	D
Cc1nn(C)c(N(C)C)c1CNC(C)c1cccnc1 (centres unmarked)	-2.375%	24%	-17.24%	6.977%
CCOc1ccccc1CNC(=O)N1CCC(n2cncn2)CC1	-1.94%	-4.526%	-7.327%	4.298%
Cc1ccc(NS(=O)(=O)c2cnn(Cc3ccccc3)c2)c(C(=O)O)c1	1.708%	-7.41%	5.005%	5%
CCc1ccc(CN2C[C@@H](C(=O)O)[C@H](c3ccccc3OC)C2)o1	-1.2%	17.15%	-20.44%	3.175%
CCc1nnc(C(C)N2CCN(CCC(C)(C)C)CC2)o1 (centres unmarked)	1.665%	10.69%	-6.736%	-1.005%
COCC(=O)NCc1cc(=O)n2c(n1)CN(Cc1cccs1)CCC2	-	36.44%	-6.245%	5.291%
O=C(NC1CC1)C1CN(Cc2ccc3c(c2)OCCO3)CCN1 (centres unmarked)	1.447%	-0.9804%	-0.5112%	-0.9662%